In publication PMC7808939:
Results are given in words; binding and its absence hold for the method and conditions named. For part of these data: In cells and extracts the contact can be indirect. Some results given as binding are weak or reduced against the parent protein; the word gives no strength. For part of these data: Where a sequence is shown, tags or fusion partners need not be part of it.

Key:
Flag-D3 (NIH3T3) = molecular target: T1, Flag-D3 (NIH3T3) (UniProt P30282); experiment: co-IP; NIH3T3 co-transfected with HA-GFP or HA-Fbxl8 (wild type or deletion mutants) and Flag-D3, MG132 (20 μM) for 4 h; anti-Flag beads
T1 sequence: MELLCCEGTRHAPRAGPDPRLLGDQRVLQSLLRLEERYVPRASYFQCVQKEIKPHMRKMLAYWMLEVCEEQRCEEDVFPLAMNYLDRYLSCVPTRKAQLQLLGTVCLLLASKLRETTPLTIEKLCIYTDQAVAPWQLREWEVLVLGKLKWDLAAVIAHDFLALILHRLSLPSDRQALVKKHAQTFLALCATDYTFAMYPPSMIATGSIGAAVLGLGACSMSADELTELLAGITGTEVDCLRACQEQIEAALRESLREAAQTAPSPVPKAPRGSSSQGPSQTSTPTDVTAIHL

[1] = molecular target: T2, Flag-Fbxl8 (Sf9, purified) (UniProt Q8CIG9); experiment: pull-down; in vitro binding: Flag-Fbxl8 or Flag-Fbxo4 purified on anti Flag beads from sf9, incubated 4 h with cyclin D3/CDK4 or cyclin D2/CDK4 purified from sf9; washed 5 times with Tween20 lysis buffer (50 mM HEPES pH 8.0, 150 mM NaCl, 0.1% Tween 20); western blot; both purified
T2 sequence: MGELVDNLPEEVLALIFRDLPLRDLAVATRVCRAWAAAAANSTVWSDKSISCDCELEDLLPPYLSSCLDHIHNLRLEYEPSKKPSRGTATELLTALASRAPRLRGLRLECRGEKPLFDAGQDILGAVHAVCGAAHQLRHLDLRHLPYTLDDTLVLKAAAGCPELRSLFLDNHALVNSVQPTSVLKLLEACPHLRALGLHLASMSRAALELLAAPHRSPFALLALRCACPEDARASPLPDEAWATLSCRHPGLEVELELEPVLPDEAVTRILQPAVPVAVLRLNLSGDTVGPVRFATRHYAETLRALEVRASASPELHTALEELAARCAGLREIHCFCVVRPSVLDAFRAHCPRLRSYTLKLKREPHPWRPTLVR

[2] = molecular target: T3, Flag-Fbxo4 (Sf9, purified) (UniProt Q8CHQ0); experiment: as above
T3 sequence: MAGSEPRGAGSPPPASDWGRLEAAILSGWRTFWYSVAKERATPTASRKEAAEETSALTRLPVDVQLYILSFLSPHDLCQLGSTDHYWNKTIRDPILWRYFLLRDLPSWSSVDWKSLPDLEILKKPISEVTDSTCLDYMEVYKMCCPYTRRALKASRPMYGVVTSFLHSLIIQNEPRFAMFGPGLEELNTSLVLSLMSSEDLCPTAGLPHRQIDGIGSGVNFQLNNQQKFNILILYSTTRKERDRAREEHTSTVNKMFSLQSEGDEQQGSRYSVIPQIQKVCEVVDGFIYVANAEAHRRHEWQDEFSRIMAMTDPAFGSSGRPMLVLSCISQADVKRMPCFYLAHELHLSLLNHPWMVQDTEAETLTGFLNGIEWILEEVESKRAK

[3] = molecular target: T4, Fbxl8 (immunoprecipitation of Fig. S5C) (UniProt Q8CIG9); experiment: co-IP; immunoprecipitation (Fig. S5C), without Leptomycin B; cells and constructs not shown
T4 sequence: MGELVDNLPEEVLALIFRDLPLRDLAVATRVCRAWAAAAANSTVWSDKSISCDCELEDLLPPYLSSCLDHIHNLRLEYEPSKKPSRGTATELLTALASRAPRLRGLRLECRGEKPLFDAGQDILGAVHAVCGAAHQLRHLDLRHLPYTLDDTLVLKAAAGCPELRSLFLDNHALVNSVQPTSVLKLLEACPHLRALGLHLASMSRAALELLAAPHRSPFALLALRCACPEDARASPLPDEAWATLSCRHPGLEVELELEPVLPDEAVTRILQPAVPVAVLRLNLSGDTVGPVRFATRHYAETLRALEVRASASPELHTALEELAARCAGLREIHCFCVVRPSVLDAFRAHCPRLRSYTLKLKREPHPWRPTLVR

[4] = molecular target: T5, endogenous Fbxl8 (NIH3T3 cells) (mouse (endogenous in NIH3T3)) (UniProt Q8CIG9); experiment: co-IP; endogenous proteins, NIH3T3 lysate, MG132 (20 μM) for 4 h; normal IgG or an antibody specific for Fbxl8; blot for cyclin D3, D2, D1
T5 sequence: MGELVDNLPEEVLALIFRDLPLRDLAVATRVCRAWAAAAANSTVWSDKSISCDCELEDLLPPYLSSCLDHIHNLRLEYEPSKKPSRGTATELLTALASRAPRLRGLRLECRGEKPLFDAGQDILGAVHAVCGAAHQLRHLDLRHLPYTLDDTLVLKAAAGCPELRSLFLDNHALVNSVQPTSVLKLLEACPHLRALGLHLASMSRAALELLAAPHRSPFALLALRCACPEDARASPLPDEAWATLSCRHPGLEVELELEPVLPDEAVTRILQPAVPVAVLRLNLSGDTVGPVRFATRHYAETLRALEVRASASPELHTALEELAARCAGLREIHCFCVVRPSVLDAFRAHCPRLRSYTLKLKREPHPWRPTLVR

HA-Fbxl8 (HEK293T) = molecular target: T6, HA-Fbxl8 (HEK293T) (UniProt Q8CIG9); experiment: co-IP; HEK293T co-transfected with Flag-cyclin D3 or D3TA and HA-Fbxl8, with or without MG132 (20 μM) for 4 h; normal IgG or anti-HA
T6 sequence: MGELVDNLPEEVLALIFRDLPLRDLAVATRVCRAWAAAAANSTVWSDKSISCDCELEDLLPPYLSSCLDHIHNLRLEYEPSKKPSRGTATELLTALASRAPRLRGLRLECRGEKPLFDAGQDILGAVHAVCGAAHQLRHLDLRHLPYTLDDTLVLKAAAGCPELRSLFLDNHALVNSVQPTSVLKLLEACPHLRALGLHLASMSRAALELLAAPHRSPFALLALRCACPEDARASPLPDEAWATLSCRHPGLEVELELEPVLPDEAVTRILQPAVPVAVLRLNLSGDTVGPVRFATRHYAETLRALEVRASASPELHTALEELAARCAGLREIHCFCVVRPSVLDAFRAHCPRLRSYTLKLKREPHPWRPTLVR

B1: HA-Fbxl8 wild type (NIH3T3) (protein, UniProt Q8CIG9 1-374)
chain: MGELVDNLPEEVLALIFRDLPLRDLAVATRVCRAWAAAAANSTVWSDKSISCDCELEDLLPPYLSSCLDHIHNLRLEYEPSKKPSRGTATELLTALASRAPRLRGLRLECRGEKPLFDAGQDILGAVHAVCGAAHQLRHLDLRHLPYTLDDTLVLKAAAGCPELRSLFLDNHALVNSVQPTSVLKLLEACPHLRALGLHLASMSRAALELLAAPHRSPFALLALRCACPEDARASPLPDEAWATLSCRHPGLEVELELEPVLPDEAVTRILQPAVPVAVLRLNLSGDTVGPVRFATRHYAETLRALEVRASASPELHTALEELAARCAGLREIHCFCVVRPSVLDAFRAHCPRLRSYTLKLKREPHPWRPTLVR
Flag-D3 (NIH3T3)
  binding: binds

B2: Cyclin D3/CDK4 (Sf9, purified) (complex, UniProt P30282 1-292; P30285 1-303)
chain 1: MELLCCEGTRHAPRAGPDPRLLGDQRVLQSLLRLEERYVPRASYFQCVQKEIKPHMRKMLAYWMLEVCEEQRCEEDVFPLAMNYLDRYLSCVPTRKAQLQLLGTVCLLLASKLRETTPLTIEKLCIYTDQAVAPWQLREWEVLVLGKLKWDLAAVIAHDFLALILHRLSLPSDRQALVKKHAQTFLALCATDYTFAMYPPSMIATGSIGAAVLGLGACSMSADELTELLAGITGTEVDCLRACQEQIEAALRESLREAAQTAPSPVPKAPRGSSSQGPSQTSTPTDVTAIHL
chain 2: MAATRYEPVAEIGVGAYGTVYKARDPHSGHFVALKSVRVPNGGAAGGGLPVSTVREVALLRRLEAFEHPNVVRLMDVCATSRTDRDIKVTLVFEHIDQDLRTYLDKAPPPGLPVETIKDLMRQFLSGLDFLHANCIVHRDLKPENILVTSNGTVKLADFGLARIYSYQMALTPVVVTLWYRAPEVLLQSTYATPVDMWSVGCIFAEMFRRKPLFCGNSEADQLGKIFDLIGLPPEDDWPREVSLPRGAFAPRGPRPVQSVVPEMEESGAQLLLEMLTFNPHKRISAFRALQHSYLHKEESDAE
[1]
  binding: binds
[2]
  binding: no binding

B3: cyclin D3 (immunoprecipitation of Fig. S5C) (protein, UniProt P30282 1-292)
chain: MELLCCEGTRHAPRAGPDPRLLGDQRVLQSLLRLEERYVPRASYFQCVQKEIKPHMRKMLAYWMLEVCEEQRCEEDVFPLAMNYLDRYLSCVPTRKAQLQLLGTVCLLLASKLRETTPLTIEKLCIYTDQAVAPWQLREWEVLVLGKLKWDLAAVIAHDFLALILHRLSLPSDRQALVKKHAQTFLALCATDYTFAMYPPSMIATGSIGAAVLGLGACSMSADELTELLAGITGTEVDCLRACQEQIEAALRESLREAAQTAPSPVPKAPRGSSSQGPSQTSTPTDVTAIHL
[3]
  binding: binds

B4: endogenous cyclin D3 (NIH3T3 cells) (protein, UniProt P30282 1-292)
chain: MELLCCEGTRHAPRAGPDPRLLGDQRVLQSLLRLEERYVPRASYFQCVQKEIKPHMRKMLAYWMLEVCEEQRCEEDVFPLAMNYLDRYLSCVPTRKAQLQLLGTVCLLLASKLRETTPLTIEKLCIYTDQAVAPWQLREWEVLVLGKLKWDLAAVIAHDFLALILHRLSLPSDRQALVKKHAQTFLALCATDYTFAMYPPSMIATGSIGAAVLGLGACSMSADELTELLAGITGTEVDCLRACQEQIEAALRESLREAAQTAPSPVPKAPRGSSSQGPSQTSTPTDVTAIHL
[4]
  binding: binds

B5: Flag-tagged cyclin D3 (HEK293T) (protein, UniProt P30282 1-292)
chain: MELLCCEGTRHAPRAGPDPRLLGDQRVLQSLLRLEERYVPRASYFQCVQKEIKPHMRKMLAYWMLEVCEEQRCEEDVFPLAMNYLDRYLSCVPTRKAQLQLLGTVCLLLASKLRETTPLTIEKLCIYTDQAVAPWQLREWEVLVLGKLKWDLAAVIAHDFLALILHRLSLPSDRQALVKKHAQTFLALCATDYTFAMYPPSMIATGSIGAAVLGLGACSMSADELTELLAGITGTEVDCLRACQEQIEAALRESLREAAQTAPSPVPKAPRGSSSQGPSQTSTPTDVTAIHL
HA-Fbxl8 (HEK293T)
  binding: binds
